{
  "source": "patent US12702135B2",
  "about": "“Mitigation of ammonia, odor and greenhouse gases” (Syddansk Universitet, priority 2019, dated 2026)",
  "tested_on": "Klebsiella pneumoniae",
  "assay": "pH-based urease activity assay, pure K. pneumoniae culture in M9U minimal medium",
  "assay_type": "cell-based, Klebsiella pneumoniae subsp. pneumoniae",
  "details": "screen of 71 commercially available compounds, compounds applied separately",
  "description": "The urease stock was stored at −20° C.\nAll M9U components except glucose, urea, FeCl2, ZnSO4, and vitamins were mixed, the pH adjusted to 6.8 and the medium was autoclaved. Glucose, urea, FeCl2, ZnSO4, and BME Vitamin solution were sterile-filtered and added aseptically after autoclaving. Urea was added within 24 h before the medium was used.\nThe assay consists of a buffered urea solution containing the pH indicator phenol red and the inhibitor to be tested. […] Each compound was screened at three concentrations (10×, 100× and 1000× dilutions of the stock) in triplicate against K. pneumoniae and purified JBU. To this solution ureolytic bacteria or urease is added and the solution is incubated in a plate reader which every 15 minutes measure the absorbance at 557 nm and 630 nm (A557 and A630). […] Increase in absorbance at 557 nm reflects increasing pH (until saturation of the indicator at pH 8.2) and increase in absorbance at 630 nm reflects bacterial growth (optical density). […] In the bacterial assay inhibitors were evaluated based on three parameters: maximal or final pH increase, onset of pH increase and rate of pH increase. The relative maximal pH increase was determined as pHmax=A557-A630. […] For each inhibitor the influence on the bacterial growth was also evaluated by identifying the end of the lag phase (onset of exponential growth), the growth rate and the maximal OD630.",
  "note": "Some entries share one result that the patent states for a list of compounds.",
  "data": [
    {"smiles": "O=C(OC[C@H]1O[C@@H](OC(=O)c2cc(O)c(O)c(OC(=O)c3cc(O)c(O)c(O)c3)c2)[C@H](OC(=O)c2cc(O)c(O)c(OC(=O)c3cc(O)c(O)c(O)c3)c2)[C@@H](OC(=O)c2cc(O)c(O)c(OC(=O)c3cc(O)c(O)c(O)c3)c2)[C@@H]1OC(=O)c1cc(O)c(O)c(OC(=O)c2cc(O)c(O)c(O)c2)c1)c1cc(O)c(O)c(OC(=O)c2cc(O)c(O)c(O)c2)c1", "note": "[Tannic acid, tannic acid]", "values": [
      {"measurement": "inhibition of the ureolytic activity of Klebsiella pneumoniae and/or jack bean urease", "result": "> 25", "unit": "%"}
    ]}
  ]
}
